The values below are quoted from earlier work in patent US20170364630A1, “IDENTIFICATION OF CELLULAR ANTIMICROBIAL DRUG TABLETS THROUGH INTERACTOME ANALYSIS” (Vanderbilt University, priority 2014, published 2017).

This series has as its system hepatitis C virus (HCV). To be noted: cell-based quantitative high-throughput screening, He et al. 2015; read-out: EC50, anti-HCV activity.

Turning to `Cc1ccccc1C(OCCN(C)C)c1ccccc1` (stereo not shown) [orphenadrine], the EC50 was 10.5 µM.

The EC50 is the concentration giving half of the maximal effect.
